{"source": "PubChem BioAssay AID1259254 (NCATS, 2017)", "test": "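Gene knock-downs that lead to re-replication, shown by excess G2 DNA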 (primary screen)", "cell system": "human HCT116 colorectal cancer cells", "knock-down reagent": "single siRNA against human genes", "time to read-out": "3 days", "measured": "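Nuclei stained with Hoechst and imaged; cell-cycle phase assigned by DNA content; G2 share scaled per plate, non-targeting siRNA 0%, GMNN siRNA 100%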", "scale": "G2 robust z-score and G2 cells, % of GMNN control: higher = more G2 cells, more excess DNA replication", "hit rule": "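Active siRNAs have a G2 robust z of 5 or more median absolute deviations over the median, which in these data means about 38% or higher of GMNN control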", "note": "The deposit covers about 59,000 reagents; this is an unselected part. About 1,550 of all reagents (2.6%) were called active. 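G2 share is only a proxy for re-replication; each gene was hit by three separate siRNAs, and active genes were retested.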 Unmarked entries are inactive. The numbers tell different reagents against one gene apart. Not all columns of the deposit are shown. Not stated in the record: the amount of reagent."}
{"gene symbol":"RRP1 (ribosomal RNA processing 1)","siRNA no.":1,"G2 robust z-score":1.29,"G2 cells, % of GMNN control":12}
{"gene symbol":"RRP1 (ribosomal RNA processing 1)","siRNA no.":2,"G2 robust z-score":-0.259,"G2 cells, % of GMNN control":1.14}
{"gene symbol":"RRP1 (ribosomal RNA processing 1)","siRNA no.":3,"G2 robust z-score":2.27,"G2 cells, % of GMNN control":18.9}
{"gene symbol":"OR2Z1 (olfactory receptor family 2 subfamily Z member 1)","siRNA no.":1,"G2 robust z-score":-0.311,"G2 cells, % of GMNN control":0.782}
{"gene symbol":"OR2Z1 (olfactory receptor family 2 subfamily Z member 1)","siRNA no.":2,"G2 robust z-score":3.8,"G2 cells, % of GMNN control":29.7}
{"gene symbol":"OR2Z1 (olfactory receptor family 2 subfamily Z member 1)","siRNA no.":3,"G2 robust z-score":-0.433,"G2 cells, % of GMNN control":-0.0783}
{"gene symbol":"SOX14 (SRY-box transcription factor 14)","siRNA no.":1,"G2 robust z-score":-0.143,"G2 cells, % of GMNN control":1.96}
{"gene symbol":"SOX14 (SRY-box transcription factor 14)","siRNA no.":2,"G2 robust z-score":3.64,"G2 cells, % of GMNN control":28.6}
{"gene symbol":"SOX14 (SRY-box transcription factor 14)","siRNA no.":3,"G2 robust z-score":1.43,"G2 cells, % of GMNN control":13}
{"gene symbol":"APCS (amyloid P component, serum)","siRNA no.":1,"G2 robust z-score":-0.158,"G2 cells, % of GMNN control":1.85}
{"gene symbol":"APCS (amyloid P component, serum)","siRNA no.":2,"G2 robust z-score":1.02,"G2 cells, % of GMNN control":10.2}
{"gene symbol":"APCS (amyloid P component, serum)","siRNA no.":3,"G2 robust z-score":-0.626,"G2 cells, % of GMNN control":-1.44}

The list goes on (3 carried over from the part before).
{"gene symbol":"APCS (amyloid P component, serum)","siRNA no.":1,"G2 robust z-score":-0.158,"G2 cells, % of GMNN control":1.85}
{"gene symbol":"APCS (amyloid P component, serum)","siRNA no.":2,"G2 robust z-score":1.02,"G2 cells, % of GMNN control":10.2}
{"gene symbol":"APCS (amyloid P component, serum)","siRNA no.":3,"G2 robust z-score":-0.626,"G2 cells, % of GMNN control":-1.44}
{"gene symbol":"KCNK1 (potassium two pore domain channel subfamily K member 1)","siRNA no.":1,"G2 robust z-score":0.624,"G2 cells, % of GMNN control":7.36}
{"gene symbol":"KCNK1 (potassium two pore domain channel subfamily K member 1)","siRNA no.":2,"G2 robust z-score":0.219,"G2 cells, % of GMNN control":4.51}
{"gene symbol":"KCNK1 (potassium two pore domain channel subfamily K member 1)","siRNA no.":3,"G2 robust z-score":0.044,"G2 cells, % of GMNN control":3.28}
{"gene symbol":"RPL29P31 (ribosomal protein L29 pseudogene 31)","siRNA no.":1,"G2 robust z-score":-0.0734,"G2 cells, % of GMNN control":2.45}
{"gene symbol":"RPL29P31 (ribosomal protein L29 pseudogene 31)","siRNA no.":2,"G2 robust z-score":0.703,"G2 cells, % of GMNN control":7.91}
{"gene symbol":"RPL29P31 (ribosomal protein L29 pseudogene 31)","siRNA no.":3,"G2 robust z-score":-0.759,"G2 cells, % of GMNN control":-2.37}
{"gene symbol":"EPHA8 (EPH receptor A8)","siRNA no.":1,"G2 robust z-score":-0.616,"G2 cells, % of GMNN control":-1.37}
{"gene symbol":"EPHA8 (EPH receptor A8)","siRNA no.":2,"G2 robust z-score":1.49,"G2 cells, % of GMNN control":13.4}
{"gene symbol":"EPHA8 (EPH receptor A8)","siRNA no.":3,"G2 robust z-score":-0.81,"G2 cells, % of GMNN control":-2.73}
{"gene symbol":"SRPK1 (SRSF protein kinase 1)","siRNA no.":1,"G2 robust z-score":-0.903,"G2 cells, % of GMNN control":-3.39}
{"gene symbol":"SRPK1 (SRSF protein kinase 1)","siRNA no.":2,"G2 robust z-score":-0.71,"G2 cells, % of GMNN control":-2.03}
{"gene symbol":"SRPK1 (SRSF protein kinase 1)","siRNA no.":3,"G2 robust z-score":-0.718,"G2 cells, % of GMNN control":-2.08}
